1 molecule from publication PMC4996533 can be followed below.

Sequences of proteins named here, by UniProt entry; tags and fusion partners are left off. A change or cut given only in a name is not applied to a line headed by its entry.
UniProt G4N7U4: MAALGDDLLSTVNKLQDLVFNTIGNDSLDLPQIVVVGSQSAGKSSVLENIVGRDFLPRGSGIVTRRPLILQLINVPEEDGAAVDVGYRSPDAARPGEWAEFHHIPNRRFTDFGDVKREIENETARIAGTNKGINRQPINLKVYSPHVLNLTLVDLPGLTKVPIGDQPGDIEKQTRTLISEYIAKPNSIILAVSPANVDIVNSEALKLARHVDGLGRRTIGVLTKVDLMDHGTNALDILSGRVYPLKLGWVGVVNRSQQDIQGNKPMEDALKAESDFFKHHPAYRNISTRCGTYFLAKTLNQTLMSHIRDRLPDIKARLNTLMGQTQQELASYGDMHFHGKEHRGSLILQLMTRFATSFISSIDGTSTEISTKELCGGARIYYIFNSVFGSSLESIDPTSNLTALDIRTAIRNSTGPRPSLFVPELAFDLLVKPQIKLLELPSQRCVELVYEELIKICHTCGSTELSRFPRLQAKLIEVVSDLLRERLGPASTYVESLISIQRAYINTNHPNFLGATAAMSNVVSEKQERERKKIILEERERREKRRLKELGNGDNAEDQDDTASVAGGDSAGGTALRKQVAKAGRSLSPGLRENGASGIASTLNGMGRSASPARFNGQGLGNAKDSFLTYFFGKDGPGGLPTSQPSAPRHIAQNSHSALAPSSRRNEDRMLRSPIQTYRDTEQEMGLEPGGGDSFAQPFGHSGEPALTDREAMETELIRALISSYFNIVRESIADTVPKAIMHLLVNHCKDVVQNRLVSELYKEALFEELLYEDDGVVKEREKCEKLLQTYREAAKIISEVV

These are yes or no findings as the source states them, for the method shown. A result given as binding can be weak or reduced; the word gives no strength. Where a sequence is shown, tags or fusion partners need not be part of it.

This experiment has as its target GST-Dnm1 (M. oryzae) (UniProt G4N7U4). The experiment can be described thus: pull-down; both purified.

B1: His6-Mdv1 (protein, UniProt A4RJV3 1-661)
chain: MASPEDENPFQDDPGQEDEDGSILSPRGLEAFSRKVTTTASHLMGPVVDPSSSGHYQSAMTEVQKHLRRPNLQRSMFSMARTTPSDLVRSKLSTREIQHRALAHVPDDMLANIPEDDNNSYSLFQGFQASFPELTDEGKKHRRRVSRGRKLLDEGPTTPENGTTGLQKLRKERASMSHELEMLGIRKNMASSEIREIDIKIANLHGMRRIILERLAALEQEETLLEHDLMEVEARVEDAQMLADEAESTAQQSSPRDTDDADAEDNDGFMSQSIYEKIPSAASTPSKSRKPRIVRRKSMAVLHEHFEPGTSIRELRAHQDCITAMDFDAPFGTLVSAAMDDSVKVWDLNAGRCIGSLEGHTASVRALQVEDNILATGSRDATVRLWDLSKAHYDPHGSHYNGGDDDDDAMAFENPDDQPVDPPAGSMADCPLFTLSSHMDEVTALHFKGDTLVSGSSDKTIRQWDLVKGRCVQTLDVMWAAAQASVSLGTGDGAWRQTARSQAEDADFVGAVQVFDAALACGTADGMVRLWDLRSGQVHRNLVGHTGPVTALQFDNMHLVTGSHDRSIRIWDLRTGSIFDAFAYDHPVTSMMFDARRIVSAAGEDVVKVYDKVESRQWDCGAGIKAAEEMKNPPAIVERVRIRDGYMVEGRRDGIVGIWTC
As for B1, the binding entry is “binds”.
